Laboratory results: PubChem BioAssay AID1347076 (National Center for Advancing Translational Sciences (NCATS), 2019)
The whole screen tested about 400,000 compounds, of which about 13,000 (3.2%) were called active. Inconclusive means that the source gave no clear call. Such entries were picked first, then a sample of the others. Calls follow the shape of the dose curve; as a rule, active = well fitted cell-killing curve with a large enough effect; inconclusive = small, poorly fitted or top-dose-only effect, or effect the other way; inactive = flat fitted curve, though single readings scatter. Where the call is inconclusive, the potency comes from a doubtful curve fit.
Potency is read from the fitted curve at half-maximal effect.

Assay: qHTS assay for MDR1-selective chemotherapeutics: Primary screen using the drug-selected MDR subline cells KB-V1; also: nearly all actives have a fitted effect of over 60% in size
Details: KB-V1 MDR cells viability, CellTiter-Glo, 72 h; series mostly up to 46.1 µM
Outline: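 Readout: CellTiter-Glo luminescence, 10 min after addition. Cells: KB-V1 MDR subline, 72 h at 37 degrees C with compound. Analysis: corrected, normalized data fitted to concentration-effect curves.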
With `Cc1cccc(-c2c3c(=O)n(C)c(=O)n(C)c3c3c(C)nc4ccccc4n23)c1` the Potency was “inactive”. For `O=C(C1CCN(S(=O)(=O)c2ccc3c(c2)OCCO3)CC1)N1CCc2ccccc21`, the Potency was inconclusive: 10.3 µM [cytotoxic, partial curve]. For `CC(C)n1c(NCc2nc3ccccc3n2C)nc2ccccc21`, the Potency was “inactive”. In the case of `CN(C)CCNC(=O)c1ccc(Sc2ccc(Br)cc2)c([N+](=O)[O-])c1`, the Potency is reported as inconclusive: 10.3 µM [cytotoxic, partial curve, poor fit]. In the case of `COc1ccc(-c2nc(C#N)c(N3CCCCC3)o2)cc1`, the Potency is reported as “inactive”. For `COc1ccc(C)cc1S(=O)(=O)N(C)CC(=O)N1CCCCCC1`, the Potency was inconclusive: 20.6 µM [cytotoxic, partial curve, poor fit]. For `O=C1c2ccccc2CSc2c(O)cccc21`, the Potency was inconclusive: 0.461 µM [rising, full curve, poor fit]. For `COc1cccc(-n2c(-c3ccccc3)c[nH]c2=S)c1`, the Potency was “inactive”. In the case of `COCc1ccc(-c2c(-c3ccsc3)oc(=O)c3cc(OC)c(OC)cc23)cc1`, the Potency is reported as inconclusive: 29.1 µM [cytotoxic, single point]. In the case of `CC(/C=N/n1cnnc1)=C\c1ccco1`, the Potency is reported as inconclusive: 7.31 µM [cytotoxic, partial curve]. With `O=C(c1ccco1)N1CCN(C(=S)NC2CC3CCC2C3)CC1` (configuration not stated) the Potency was inconclusive: 29.1 µM [cytotoxic, single point]. In the case of `Cc1ccc(S(=O)(=O)N2CCCCC2)cc1NC(=O)Cn1ccsc1=N`, the Potency is reported as “inactive”. With `Cc1nc(N2CCC(C)CC2)c2c(C)c(C(=O)Nc3cc(F)ccc3C)sc2n1` the Potency was inconclusive: 5.8 µM [cytotoxic, partial curve, poor fit]. In the case of `Cc1ccc(CN2C(=O)NC(Cc3c[nH]c4ccccc34)C2=O)cc1` (configuration not stated), the Potency is reported as inconclusive: 18.4 µM [cytotoxic, single point]. For `CCOC(=O)C1(CCOC)CCN(Cc2cccc(OCc3ccccc3)c2)CC1`, the Potency was “inactive”. With `COc1ccc(CNC(=O)CCC(=O)Nc2cccnc2)cc1` the Potency was inconclusive: 29.1 µM [rising, single point]. For `CN(NS(=O)(=O)c1ccc(Br)cc1)c1nc(C(F)(F)F)nc2ccccc12`, the Potency was inconclusive: 29.1 µM [cytotoxic, single point]. For `Cc1ccc(-c2nsc(SCC(=O)NCc3ccc4c(c3)OCO4)n2)cc1`, the Potency was inconclusive: 16.4 µM [cytotoxic, single point]. With `Cc1ccc(NC(=O)C2CCC(C(C)(C)C)CC2)cc1S(=O)(=O)N1CCOCC1` (configuration not stated) the Potency was inconclusive: 29.1 µM [cytotoxic, single point]. For `COc1ccccc1CCC(=O)Nc1ccc2c(c1)c(=O)n(C)n2-c1cccs1`, the Potency was “inactive”. For `Nn1c(SCC(=O)NCc2ccccc2)nnc1C1CC1`, the Potency was “inactive”. With `CCN(CC)C(=O)c1c(-c2ccccc2)oc2ccc(OC)cc12` the Potency was inconclusive: 18.4 µM [cytotoxic, single point]. With `COc1cc(OC)c(OC)cc1CN1CCc2nc(Nc3ccc4c(c3)OCCO4)ncc2C1` the Potency was “inactive”. With `CCCNC(=O)C1=CC(c2ccc3c(c2)OCO3)=NS(=O)(=O)N1C` the Potency was “inactive”. With `COC(=O)c1ccccc1NC(=O)NCc1c(C)nn(C)c1C` the Potency was inconclusive: 18.4 µM [cytotoxic, single point]. In the case of `CNC(=S)NNC(=O)c1cccc(C(F)(F)F)c1`, the Potency is reported as inconclusive: 9.2 µM [cytotoxic, partial curve]. For `Cc1cccc(NC2=Nc3ccccc3N3C2=Nc2c(c(C)nn2-c2ccccc2)C3c2ccc(O)c(O)c2)c1` (configuration not stated), the Potency was inconclusive: 20.6 µM [cytotoxic, single point]. For `CN1CCN(C(c2ccc(F)cc2)c2ccc3cccnc3c2O)CC1` (configuration not stated), the Potency was “inactive”. In the case of `Cc1cccc(S(=O)(=O)Nc2ccc(-c3cn4ccccc4n3)cc2)c1`, the Potency is reported as active: 23.1 µM. With `Cc1cccc(CN2C(=O)[C@@H]3Cc4c([nH]c5ccccc45)C(C)(C)N3C2=O)c1` the Potency was inconclusive: 23.1 µM [cytotoxic, single point]. For `O=C(c1cnn2c1NC(c1ccc(Br)cc1)CC2C(F)(F)F)N1CCN(C23CC4CC(CC(C4)C2)C3)CC1` (configuration not stated), the Potency was inconclusive: 29.1 µM [cytotoxic, single point]. In the case of `CC1=C(C(=O)Nc2ccccc2)C(c2ccccc2C)n2nc(SCC(=O)c3ccc(C)cc3)nc2N1` (configuration not stated), the Potency is reported as “inactive”. For `CC1CCc2sc(NC(=S)NC(=O)c3ccccc3)c(C#N)c2C1` (configuration not stated), the Potency was inconclusive: 18.4 µM [cytotoxic, single point]. For `CCCCCCSc1nnc(-c2cnn(-c3ccccc3)c2-n2cccc2)n1C`, the Potency was “inactive”. In the case of `NC(CO)(CO)COCc1ccccc1`, the Potency is reported as inconclusive: 9.2 µM [rising, partial curve, poor fit]. In the case of `CCOC(=O)c1ccccc1NC(=O)N1CCN(Cc2cc(=O)n3nc(-c4ccccc4)sc3n2)CC1`, the Potency is reported as inconclusive: 11.6 µM [cytotoxic, partial curve, poor fit]. In the case of `COc1ccc(/C=N/n2cnc3c([nH]c4ccc(Br)cc43)c2=O)cc1CN1CCOCC1`, the Potency is reported as inconclusive: 20.6 µM [cytotoxic, single point]. For `Cc1ccc(SCc2cc(=O)[nH]c(Nc3nc(C)c4ccccc4n3)n2)cc1`, the Potency was active: 9.2 µM. With `Cc1cccc(NC(=O)CSc2nc(-c3cccs3)cc(C(F)(F)F)c2C#N)c1C` the Potency was “inactive”. In the case of `Oc1ccc(/C=N/Nc2ncc(Cl)cc2Cl)cc1`, the Potency is reported as “inactive”. With `Cc1nc2ccccn2c1-c1csc(Nc2cccc(O)c2)n1` the Potency was active: 10.3 µM. In the case of `O=C(NCCc1csc(-c2ccc(C(F)(F)F)cc2)n1)c1ccc(F)c(F)c1`, the Potency is reported as active: 13 µM. In the case of `CCOC(=O)CSc1nc2ccsc2c(=O)n1C1CCN(C(=O)OCC)CC1`, the Potency is reported as active: 16.4 µM. In the case of `CC(C)C(=O)Nc1cccc(COc2cccc(CN(Cc3ccccc3)C(=O)OC(C)(C)C)c2)c1`, the Potency is reported as inconclusive: 20.6 µM [cytotoxic, single point]. For `C=CCN(C(=O)c1csnn1)C(C(=O)NCc1ccc(F)cc1)c1cccs1` (configuration not stated), the Potency was inconclusive: 18.4 µM [cytotoxic, single point]. With `NC(=S)N/N=C/c1coc2cc(Cl)ccc2c1=O` the Potency was inconclusive: 29.1 µM [cytotoxic, single point]. With `O=C(/C=C/c1cccc(Br)c1)N1CCN(c2ccccn2)CC1` the Potency was inconclusive: 0.366 µM [cytotoxic, full curve]. For `CCOC(=O)C1(Cc2cccc(OC)c2)CCN(Cc2ccc(C)s2)CC1`, the Potency was inconclusive: 11.6 µM [cytotoxic, partial curve, poor fit]. With `Cc1ccc(-c2nnc3ccc(SCC(=O)c4ccccc4)nn23)cc1` the Potency was “inactive”. In the case of `Clc1ncn(CCOc2ccccc2)c1Cl`, the Potency is reported as inconclusive: 18.4 µM [cytotoxic, partial curve, poor fit]. With `O=C(NNCc1ccc(O)cc1)c1ccccc1Cl` the Potency was “inactive”. In the case of `COc1ccccc1CNc1nc(NCc2ccc(C)cc2C)c2sccc2n1`, the Potency is reported as inconclusive: 18.4 µM [cytotoxic, single point]. For `CCOc1ccccc1N1CCN(C(=O)c2ccc3nc(N)sc3c2)CC1`, the Potency was inconclusive: 18.4 µM [cytotoxic, single point]. In the case of `CCN(CC)S(=O)(=O)c1ccc2c(c1)N(CC(=O)N1CCN(c3cccc(Cl)c3)CC1)C(=O)CO2`, the Potency is reported as “inactive”. For `COc1ccc(C(CCN(Cc2ccc(OC)c(OC)c2)C(=O)CCl)c2ccccc2)cc1` (configuration not stated), the Potency was active: 20.6 µM. For `COCC(=O)Nc1ccccc1NC(C)=O`, the Potency was “inactive”. In the case of `CCN(C(=O)Cn1c(=O)n(CCCS(=O)(=O)C2CCCCC2)c(=O)c2ccccc21)c1cccc(C)c1`, the Potency is reported as “inactive”. In the case of `CCN(CC)CCCN1C(=O)c2oc3ccccc3c(=O)c2C1c1cc(OC)ccc1OC` (configuration not stated), the Potency is reported as inconclusive: 13 µM [cytotoxic, partial curve, poor fit]. For `O=C1OC(CC(=O)N(Cc2nnc(-c3ccc(Cl)cc3)o2)C2CC2)c2ccccc21` (configuration not stated), the Potency was “inactive”. For `COc1ccccc1N1CCN(C(=O)Cn2ncc3ccsc3c2=O)CC1`, the Potency was “inactive”. In the case of `CCN(c1cccc(C(F)(F)F)c1)S(=O)(=O)c1ccc2c(c1)CCN2C(=O)C1CC1`, the Potency is reported as inconclusive: 11.2 µM [cytotoxic, partial curve]. With `COc1cc(OC)cc(OC2(C)CCN(Cc3ccc(OC(C)C)cc3)C2)c1` (configuration not stated) the Potency was “inactive”. For `CCCC(=O)Nc1ccc(-c2csc(N/N=C\c3ccncc3)n2)cc1`, the Potency was inconclusive: 23.1 µM [cytotoxic, single point]. With `Cc1ccc(N/C(=N/S(=O)(=O)c2cccs2)c2ccccc2)c(C)c1` the Potency was active: 9.2 µM. For `O=C(CC1C(=O)NCCN1C/C=C/c1ccccc1)NCCc1ccncc1` (configuration not stated), the Potency was inconclusive: 9.2 µM [rising, partial curve, poor fit]. With `CC/C(=N\Nc1ccc([N+](=O)[O-])cc1)c1ccccc1` the Potency was “inactive”. In the case of `COc1ccc(NC(=O)Nc2ccc3nonc3c2)cc1`, the Potency is reported as inconclusive: 29.1 µM [cytotoxic, single point]. In the case of `CNC(=O)C[C@@H]1C(=O)N(c2ccc(OC)cc2)CC1(C)C`, the Potency is reported as “inactive”. With `Cc1c(C(=O)NCCN2C(=O)S/C(=C\c3cccnc3)C2=O)cccc1[N+](=O)[O-]` the Potency was inconclusive: 14.6 µM [rising, single point]. In the case of `NC(=S)N/N=C/c1cc([N+](=O)[O-])ccc1Cl`, the Potency is reported as inconclusive: 2.06 µM [rising, partial curve, poor fit]. For `Cc1ccc2nc(NC(=O)C3CCN(S(=O)(=O)c4cccc5nsnc45)CC3)sc2c1`, the Potency was inconclusive: 20.6 µM [cytotoxic, single point]. With `O=C(Nc1cccc(NC(=O)c2ccc([N+](=O)[O-])o2)c1)c1ccco1` the Potency was inconclusive: 23.1 µM [cytotoxic, single point].
